PubChem BioAssay AID1259281 | Sanger Institute, 2017

Screen: 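Identify essential genes and drug-enhancing knock-downs among kinases and common colorectal mutated genes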 (primary screen)
Cell system: human COLO678 colorectal cancer cell line
Reagent: siRNA pool against human genes
Conditions: anchor drugs at fixed doses: BYL719 1 µM, cetuximab 5 µg/ml or trametinib 10 nM; DMSO vehicle for the siRNA-alone arm
Read-out: 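Surviving cells scaled to non-targeting siRNA control as replicate means; robust z-score for knock-down alone; synergy scores weigh knock-down with drug against the predicted combined effect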
Reading the numbers: robust z-score, siRNA alone: higher = more viable cells; strongly negative means essential; viability, siRNA alone: higher = more surviving cells; synergy score with BYL719 and synergy score with trametinib and synergy score with cetuximab: higher = stronger synergistic killing with drug
Active means: 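Essential (knock-down alone) when the siRNA-alone robust z-score is below -3; otherwise no change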
Meaning of the calls: active = essential (knock-down alone); inactive = no change
The deposit covers 794 reagents; shown is a part drawn at random. 22 of all reagents (2.8%) were called active. 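Calls rest on knock-down alone only; drug synergy scores play no part in them.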 Viability is capped at 1. Not stated in the record: the amount of reagent, the time to read-out.

Target gene	robust z-score, siRNA alone	viability, siRNA alone (fraction of control)	synergy score with BYL719	synergy score with trametinib	synergy score with cetuximab	activity call
MAGI3	0.473	1	-0.0919	-0.0305	-0.0191	inactive
PI4K2A	0.473	1	-0.0787	0.062	0.00753	inactive
RPS6KL1	0.473	1	-0.0919	-0.0325	0.031	inactive
PHKG2	0.298	0.994	-0.097	-0.039	-0.0733	inactive
KCNH8	-1.01	0.953	0.0151	0.159	-0.0281	inactive
PCK1	-0.301	0.975	0.00762	0.00781	0.0214	inactive
PIK3R5	0.473	1	-0.0789	0.0929	-0.0575	inactive
MYO3A	0.473	1	-0.018	0.0181	0.0842	inactive
RYK	0.473	1	-0.0919	0.0989	-0.0607	inactive
WT1	-2.4	0.909	-0.144	-0.0438	-0.037	inactive
PINK1	0.441	0.999	-0.0928	0.0368	0.0752	inactive
APC	0.473	1	-0.0919	-0.0245	-0.0358	inactive
ITK	0.473	1	-0.022	-0.0804	-0.0676	inactive
IP6K2	0.473	1	0.0197	0.0192	0.006	inactive
STK4	0.473	1	-0.0349	0.0484	-0.0681	inactive
NEK10	0.0221	0.986	0.0512	0.0195	0.0637	inactive
ITSN1	0.473	1	-0.0494	-0.125	-0.0681	inactive
CDK13	0.473	1	-0.0919	0.0182	0.018	inactive
PSTK	0.473	1	-0.0919	0.115	0.02	inactive
CDK4	0.473	1	-0.0423	-0.000357	0.015	inactive
THNSL1	0.473	1	-0.049	0.0209	0.0233	inactive
MAST2	0.473	1	0.0653	0.0339	0.00614	inactive
CKS1B	0.473	1	0.102	0.0229	-0.0681	inactive
PFKFB1	0.473	1	-0.0528	0.0624	0.00541	inactive
PKN2	-1.58	0.935	-0.107	0.0537	0.0249	inactive
DAPK3	-1.52	0.937	0.0476	-0.0354	-0.0462	inactive
CEP290	0.473	1	0.00436	0.00821	-0.0211	inactive
MYLK	0.473	1	-0.0919	0.0451	0.0639	inactive
PRKACA	0.473	1	-0.0919	0.0191	0.0329	inactive
LRRK1	0.473	1	0.0553	0.046	-0.00068	inactive
FXN	0.473	1	0.00315	0.0381	-0.0655	inactive
IRAK3	-0.245	0.977	-0.0227	0.0963	0.0807	inactive
LMBR1	0.473	1	-0.0919	0.0106	-0.0393	inactive
DYRK4	-0.515	0.969	-0.0148	-0.0531	-0.0954	inactive
NTRK3	0.473	1	0.00965	-0.112	-0.024	inactive
ATP23	0.473	1	-0.0919	0.0292	-0.0585	inactive
STK32C	0.473	1	-0.0919	0.0189	-0.0249	inactive
RBKS	0.473	1	-0.0919	0.0457	-0.00477	inactive
TWF2	0.473	1	-0.0919	0.00537	-0.00101	inactive
HUNK	0.473	1	0.148	0.0848	0.0789	inactive
DGKQ	0.473	1	-0.0919	-0.0334	-0.0367	inactive
PANK2	0.473	1	0.0447	-0.0269	-0.0305	inactive
DGKB	-6.43	0.781	-0.0209	-0.0114	-0.053	active
TP53RK	0.473	1	-0.0392	-0.042	0.0312	inactive
PDGFRL	0.473	1	0.0236	-0.0323	-0.0512	inactive
PASK	0.197	0.991	0.0562	0.0574	-0.00708	inactive
CDK17	0.473	1	-0.0919	0.00845	0.038	inactive
PHKA1	0.473	1	0.0935	0.0529	0.0071	inactive
PTGS1	-1.17	0.948	0.112	-0.00665	0.188	inactive
MAP3K13	-1.06	0.951	0.0702	0.0196	-0.0051	inactive
DGKA	0.473	1	-0.0735	0.0757	0.157	inactive
BPTF	-1.19	0.947	0.00278	0.0305	-0.0261	inactive
CSNK1G3	0.473	1	0.106	-0.00762	0.0144	inactive
ALPK1	0.473	1	-0.032	-0.0618	-0.0275	inactive
WEE1	-1.05	0.952	0	0.05	-0.0303	inactive
SF3B1	0.473	1	0.161	0.0798	0.056	inactive
STK31	0.473	1	-0.0919	-0.0169	-0.0418	inactive
TNIK	0.473	1	-0.00195	0.0502	0.0661	inactive
NEK9	0.473	1	-0.0747	0.0303	0.0413	inactive
PRKCB	0.296	0.994	0.0415	0.075	-0.00923	inactive
ATR	0.473	1	-0.0658	0.0571	-0.0471	inactive
AURKC	0.271	0.994	0.0529	-0.0237	-0.0741	inactive
TAOK1	-0.58	0.967	-0.0404	0.0342	0.0621	inactive

Copied from above, 5 entries:
Target gene	robust z-score, siRNA alone	viability, siRNA alone (fraction of control)	synergy score with BYL719	synergy score with trametinib	synergy score with cetuximab	activity call
ALPK1	0.473	1	-0.032	-0.0618	-0.0275	inactive
WEE1	-1.05	0.952	0	0.05	-0.0303	inactive
SF3B1	0.473	1	0.161	0.0798	0.056	inactive
STK31	0.473	1	-0.0919	-0.0169	-0.0418	inactive
TNIK	0.473	1	-0.00195	0.0502	0.0661	inactive
